The text below walks through data of PubChem BioAssay AID1347426 (Functional Genomics Laboratory (NCATS/FGL), 2020).

Hit rate of the full screen: of about 31,000 sequences, about 1,400 (4.5%) were called active.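 The calls were made as follows: active = median seed-adjusted z-score above 1 or below -1; inactive = the rest.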 The list shows a part of the results.

The nature of the test: Novel Modifiers of Survival Motor Neuron (SMN) Protein: Gene Identification via Genome-wide siRNA Screen. The following applies: HEK293T SMN2-luciferase reporter, siRNA knockdown, 72 h; actives lie on both sides. In outline:
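Each of three siRNAs per gene is reverse-transfected (1 pmol) into reporter HEK293T cells whose luciferase output tracks SMN protein level. After 72 h culture, ONE-Glo luminescence is control-normalized, log10-transformed and MAD-standardized; Common Seed Analysis deprioritizes seed-driven hits.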
As to CAUCAAGUCUGUGACCGAATT against FABP1, the median seed-adjusted z-score was inactive: -0.302.

For CCUGCACUUUUGCACCCAATT against EDN3, the median seed-adjusted z-score was inactive: -0.427.

Take GCGAGAAGUUUGUUGCAGATT against RDH16: the median seed-adjusted z-score was inactive: 0.421.

With CUGCUUACCUAUAUCCCAATT against SLC25A44, the median seed-adjusted z-score is inactive: -0.0685.

Consider GUGACUAUGAGCUCAAAUATT against RAVER1, for which the median seed-adjusted z-score is inactive: -0.0873.

In the case of CGACGAAUCCAAACACGAATT against TLN2, the median seed-adjusted z-score is inactive: -0.0106.

Turning to GCAGAUUGAAUAUAGCUUUTT against MFHAS1, the median seed-adjusted z-score is inactive: -0.267.

Turning to AAAUCCUGCCUAAUGAUGATT against KLK1, the median seed-adjusted z-score was inactive: -0.216.

Regarding CAAGGAUUCUGUUUCAACATT against 11-Sep, the median seed-adjusted z-score is inactive: -0.245.

For GCGAAAACAUGGAUGUUCUTT against HERC2, the median seed-adjusted z-score was inactive: 0.98.

With CUUUAAGACUCAUAACGAATT against GTF2E2, the median seed-adjusted z-score is active: -1.32.

Regarding GCAUUUCCCAAGACGUGGATT against ZFYVE28, the median seed-adjusted z-score was inactive: 0.0678.

On to ACAUCACGGAGAUUGCAGATT against TNNI3, for which the median seed-adjusted z-score is inactive: 0.516.

For GAAUCUCAGAAUGCACAAATT against DDB2, the median seed-adjusted z-score is inactive: 0.

Take GGACUACAAUGGUUAUCAUTT against DNAH9: the median seed-adjusted z-score was inactive: 0.656.

As to GAUUCGUCUUUGUAAAGAATT against CR2, the median seed-adjusted z-score is inactive: 0.71.

Take GUACACGGCUCAUCGAGAATT against RARRES1: the median seed-adjusted z-score is inactive: -0.329.

CAGUUUAUGUGGUUCUUCUTT against DOLPP1: the median seed-adjusted z-score is inactive: 0.00977.

Take GCACUUAGUCGAACUACAATT against WDHD1: the median seed-adjusted z-score was inactive: -0.0501.

With GCUUCGAACCUAAUGAACATT against SGTA, the median seed-adjusted z-score is inactive: 0.819.

For the sequence GAGACCAAGUUGGACCUCATT against SLC29A1, the median seed-adjusted z-score was inactive: 0.117.

Consider UCAUCAAGUGGUUCCCUGATT against RHOF, for which the median seed-adjusted z-score is inactive: 0.0711.

Regarding GCAUCAAGGAGACAUAUGATT against FMNL3, the median seed-adjusted z-score was inactive: 0.481.

Take GAAGAACUCGAGAAAAGUATT against MST4: the median seed-adjusted z-score is inactive: 0.343.

AAGAGUCAGUUUUCAGAUATT against CHID1: the median seed-adjusted z-score is inactive: 0.199.

Regarding CAGGGAACAUGUUUGAGAATT against FOXA3, the median seed-adjusted z-score is inactive: 0.128.

Regarding CAUUGAAACUGAUAAACCATT against ARCN1, the median seed-adjusted z-score was active: -1.25.

As to GCAAUUUUGCAGUAGUCAATT against DCLK2, the median seed-adjusted z-score was inactive: -0.552.

With CUGUGAACUUUGUACUCCATT against NOX5, the median seed-adjusted z-score is inactive: 0.178.

For GAACAUCUUUUAGUCUCGATT against CSE1L, the median seed-adjusted z-score was inactive: 0.425.

For GCUCAUUGCCUGCACCACATT against TTLL10, the median seed-adjusted z-score is inactive: 0.211.

For CCACUAAGAUGUAACUGUUTT against PLSCR2, the median seed-adjusted z-score is inactive: 0.

Turning to CAAAGACAAGGUCCCAUUUTT against IFI35, the median seed-adjusted z-score is inactive: 0.105.

In the case of GGCUUAUCUAUUACUACUATT against RBM44, the median seed-adjusted z-score was inactive: -0.00558.

As for GCCGAUAUCUUUCAUGUGATT against PAN2, the median seed-adjusted z-score was inactive: -0.139.

On to GGAAGUAAAUUUGAUGUAUTT against PON1, for which the median seed-adjusted z-score was inactive: 0.

Take CAAUUUCCACAGCCUCUAUTT against ADCY4: the median seed-adjusted z-score is inactive: -0.0551.

On to CAGUCUACUCAUUCGCUCATT against MEF2D, for which the median seed-adjusted z-score was inactive: 0.0021.

On to GCGUGUUCAGCGUCACUGATT against NFIC, for which the median seed-adjusted z-score was inactive: 0.72.

With CGGACCAAGGGAUCACUGATT against ECHDC2, the median seed-adjusted z-score was inactive: -0.0827.

For the sequence CGUUUAGAAGCAACGUGUATT against GPRC5B, the median seed-adjusted z-score is inactive: 0.

As for GAGAUCAACGAGUACCUCATT against FOXQ1, the median seed-adjusted z-score is inactive: 0.369.

On to GGAUCACUGUGGAAUCGAATT against CTSB, for which the median seed-adjusted z-score is inactive: -0.31.

Consider GAUCAACGGAUGCUAUGAATT against CAPN2, for which the median seed-adjusted z-score is inactive: -0.0828.

Regarding CCACGAUCAUGUGAACCCATT against INDO, the median seed-adjusted z-score is inactive: 0.0511.

Regarding GAGUGGACCGUGUUCCAUUTT against TAF7, the median seed-adjusted z-score is inactive: -0.593.

For CCAGGGAUAUGAUUGACAATT against SERPINE2, the median seed-adjusted z-score is inactive: 0.0144.

In the case of CAAUGAUAGAUUUCAGAGATT against NANOG, the median seed-adjusted z-score is inactive: -0.106.

Turning to GAAGGAUCCAAAGUGUAUATT against CHUK, the median seed-adjusted z-score is inactive: -0.613.

GCAUAUUCCCACAAUGACATT against CR2: the median seed-adjusted z-score is inactive: 0.71.

As for AGUCAUUUUGGGAACCGAUTT against ACMSD, the median seed-adjusted z-score is inactive: 0.

Take CCUGGAGCAUCGUAACAUUTT against F11: the median seed-adjusted z-score was inactive: -0.0319.

GCAACCUGGUGGACUCAUATT against DNM2: the median seed-adjusted z-score was inactive: 0.00254.

For GCCUUUACUCGUUCCACUATT against ZNF20, the median seed-adjusted z-score is inactive: -0.359.

With GGAAUAUUCUCAGCGUAAUTT against SLC17A1, the median seed-adjusted z-score was inactive: -0.271.

Consider GGACAUCGCUAAACAGUUATT against TBC1D1, for which the median seed-adjusted z-score was inactive: -0.359.

In the case of GGCUCUUCGUUGUUUAGAATT against MAP3K1, the median seed-adjusted z-score is inactive: -0.217.

For the sequence GGAUUCCCAUUUCGUCAAATT against OMD, the median seed-adjusted z-score is inactive: 0.

As to AACUUAUGGAGUUACUAGATT against NAT5, the median seed-adjusted z-score was inactive: -0.0124.

For the sequence UAUUCCACGUGGAGAAAAATT against CD44, the median seed-adjusted z-score was inactive: 0.

As for GGCUGGGCUUGCUAAUAAATT against ZNF628, the median seed-adjusted z-score was inactive: -0.121.

For CACUCGAUUUGGUUCAGCATT against ITGA2, the median seed-adjusted z-score is inactive: 0.106.

Regarding CUGCUCACCCUUUACAUCATT against KIF12, the median seed-adjusted z-score is inactive: 0.0971.

As for GCUUCUCUUUGAAUACCCATT against KCNA2, the median seed-adjusted z-score was active: -1.03.

AGGCGGACUUGGACCUUCATT against NPM2: the median seed-adjusted z-score is inactive: 0.215.

On to CCAUUCAAGUGUUCGAAGATT against ZNF440, for which the median seed-adjusted z-score is inactive: 0.208.

Turning to GGCUUGACUAUUGACCUGATT against NONO, the median seed-adjusted z-score is inactive: 0.555.

For AUACCGUGAUUAACUCAUATT against CLDN23, the median seed-adjusted z-score is inactive: 0.817.

For the sequence GCAUUGCGCUCAAUGACAATT against GAPDHS, the median seed-adjusted z-score is inactive: -0.674.
